This is one part of the list.
How the values were obtained:
Experiment in all cases: log2 fold change, soluble protein after heating vs DMSO (PISA); higher = thermal stabilisation; K562 lysate, 10 uM; active = over 0.2 and 3.5 SD of the protein, either way, in both replicates (recomputed)
[1] = compound: C1=CC=C(C=C1)[C@H](COC2=CC3=C(C=C2)NC(=O)N3)NC(=O)C4=CC=CN(C4=O)CC5=CC(=C(C=C5)F)F
How it was run: (§1)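 Log-two fold change in thermal stability relative to solvent controls is reported from duplicates. For each sample, crude K562 extract from dounce-homogenised pellets in PBS pH 7.4 with 1 mM MgCl2, at 1 mg/mL protein, was treated with 10 μM compound for 30 min. Aliquots heated for 3 min across 48°C-58°C were pooled, brought to 0.5% NP-40 at 4°C and cleared at 21,000xg for 90 min. The supernatant was quantified by TMTpro 16plex LC-MS/MS with channel sums equalised.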

Sequences of proteins named here, by UniProt entry; tags and fusion partners are left off. A change or cut given only in a name is not applied to a line headed by its entry.
UniProt P42285: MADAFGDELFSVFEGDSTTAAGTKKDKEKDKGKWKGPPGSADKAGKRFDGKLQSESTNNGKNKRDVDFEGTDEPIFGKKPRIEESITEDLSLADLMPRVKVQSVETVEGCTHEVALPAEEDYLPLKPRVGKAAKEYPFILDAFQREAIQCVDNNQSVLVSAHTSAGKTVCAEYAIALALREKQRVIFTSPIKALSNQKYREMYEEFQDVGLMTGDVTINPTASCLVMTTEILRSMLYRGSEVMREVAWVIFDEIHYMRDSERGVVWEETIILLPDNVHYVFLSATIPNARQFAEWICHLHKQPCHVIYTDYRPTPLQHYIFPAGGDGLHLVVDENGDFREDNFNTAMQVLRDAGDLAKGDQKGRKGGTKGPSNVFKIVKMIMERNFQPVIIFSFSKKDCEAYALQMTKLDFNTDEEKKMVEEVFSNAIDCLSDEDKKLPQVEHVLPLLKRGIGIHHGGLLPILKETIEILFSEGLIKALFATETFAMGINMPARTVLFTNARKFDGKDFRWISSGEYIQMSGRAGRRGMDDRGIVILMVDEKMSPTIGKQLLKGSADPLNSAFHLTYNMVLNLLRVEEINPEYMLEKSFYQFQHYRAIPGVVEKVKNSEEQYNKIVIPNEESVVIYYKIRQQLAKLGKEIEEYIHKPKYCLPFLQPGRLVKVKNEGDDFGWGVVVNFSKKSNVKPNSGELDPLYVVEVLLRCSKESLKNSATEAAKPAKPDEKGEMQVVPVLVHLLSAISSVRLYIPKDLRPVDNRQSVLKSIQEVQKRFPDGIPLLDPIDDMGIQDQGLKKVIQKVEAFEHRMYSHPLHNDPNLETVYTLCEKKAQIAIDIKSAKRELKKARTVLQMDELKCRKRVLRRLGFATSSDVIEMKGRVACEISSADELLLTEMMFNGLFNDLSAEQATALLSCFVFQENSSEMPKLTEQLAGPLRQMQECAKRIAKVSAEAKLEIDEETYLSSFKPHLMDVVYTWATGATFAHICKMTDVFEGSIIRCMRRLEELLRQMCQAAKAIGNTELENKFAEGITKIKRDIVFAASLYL
UniProt Q9Y217: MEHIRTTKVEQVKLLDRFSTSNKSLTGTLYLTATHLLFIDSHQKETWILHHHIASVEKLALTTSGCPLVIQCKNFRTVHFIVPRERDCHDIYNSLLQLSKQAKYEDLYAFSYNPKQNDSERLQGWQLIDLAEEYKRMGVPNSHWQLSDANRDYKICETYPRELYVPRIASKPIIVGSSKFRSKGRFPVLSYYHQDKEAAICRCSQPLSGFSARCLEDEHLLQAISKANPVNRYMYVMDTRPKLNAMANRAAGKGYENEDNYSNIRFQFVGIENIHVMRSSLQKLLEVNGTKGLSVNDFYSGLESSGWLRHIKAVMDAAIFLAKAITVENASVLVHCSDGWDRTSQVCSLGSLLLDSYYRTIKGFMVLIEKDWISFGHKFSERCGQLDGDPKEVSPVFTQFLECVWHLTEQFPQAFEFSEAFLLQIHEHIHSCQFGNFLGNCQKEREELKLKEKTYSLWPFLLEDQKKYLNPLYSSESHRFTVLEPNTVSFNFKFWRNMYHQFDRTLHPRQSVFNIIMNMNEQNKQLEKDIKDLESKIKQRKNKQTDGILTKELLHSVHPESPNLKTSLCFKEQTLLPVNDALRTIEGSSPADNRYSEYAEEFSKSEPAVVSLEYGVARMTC
UniProt Q15800: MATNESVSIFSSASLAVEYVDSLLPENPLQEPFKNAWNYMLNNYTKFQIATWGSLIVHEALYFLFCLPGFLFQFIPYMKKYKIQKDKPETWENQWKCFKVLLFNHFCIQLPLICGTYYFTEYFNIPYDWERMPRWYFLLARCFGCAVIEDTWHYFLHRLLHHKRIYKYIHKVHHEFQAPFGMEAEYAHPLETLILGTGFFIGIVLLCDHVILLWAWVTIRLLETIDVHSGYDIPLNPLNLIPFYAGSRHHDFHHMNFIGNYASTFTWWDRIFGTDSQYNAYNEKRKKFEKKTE
UniProt P58546, whole entry, looked up: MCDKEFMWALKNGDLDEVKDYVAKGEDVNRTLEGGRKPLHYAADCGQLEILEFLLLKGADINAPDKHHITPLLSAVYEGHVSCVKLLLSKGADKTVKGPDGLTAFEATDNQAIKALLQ
UniProt Q9P0P8: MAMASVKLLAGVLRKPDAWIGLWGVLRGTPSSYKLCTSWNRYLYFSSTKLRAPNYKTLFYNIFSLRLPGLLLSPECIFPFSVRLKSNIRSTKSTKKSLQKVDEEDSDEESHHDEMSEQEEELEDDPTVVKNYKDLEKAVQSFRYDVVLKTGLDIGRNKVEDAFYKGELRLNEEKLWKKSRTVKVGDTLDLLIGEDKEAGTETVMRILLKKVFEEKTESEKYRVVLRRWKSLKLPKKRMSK
UniProt P13640: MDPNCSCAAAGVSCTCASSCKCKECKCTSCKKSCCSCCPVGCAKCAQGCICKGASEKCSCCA
UniProt P42898: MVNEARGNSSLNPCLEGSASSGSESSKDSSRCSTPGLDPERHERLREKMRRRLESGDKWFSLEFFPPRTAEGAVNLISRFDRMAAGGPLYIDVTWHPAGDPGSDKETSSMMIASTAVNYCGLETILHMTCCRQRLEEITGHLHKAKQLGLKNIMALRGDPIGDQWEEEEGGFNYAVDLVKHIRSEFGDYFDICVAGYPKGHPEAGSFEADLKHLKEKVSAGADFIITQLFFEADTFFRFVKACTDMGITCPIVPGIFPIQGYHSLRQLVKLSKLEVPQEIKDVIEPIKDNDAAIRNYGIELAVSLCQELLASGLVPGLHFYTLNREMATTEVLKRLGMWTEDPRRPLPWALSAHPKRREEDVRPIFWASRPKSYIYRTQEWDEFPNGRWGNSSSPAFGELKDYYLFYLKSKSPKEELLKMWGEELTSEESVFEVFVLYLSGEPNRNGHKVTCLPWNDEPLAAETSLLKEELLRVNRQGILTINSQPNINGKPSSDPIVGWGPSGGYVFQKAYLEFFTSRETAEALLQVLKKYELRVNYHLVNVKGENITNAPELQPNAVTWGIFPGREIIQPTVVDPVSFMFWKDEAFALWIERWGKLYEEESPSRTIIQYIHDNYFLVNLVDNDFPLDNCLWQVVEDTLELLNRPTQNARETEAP
UniProt P03915, whole entry, looked up: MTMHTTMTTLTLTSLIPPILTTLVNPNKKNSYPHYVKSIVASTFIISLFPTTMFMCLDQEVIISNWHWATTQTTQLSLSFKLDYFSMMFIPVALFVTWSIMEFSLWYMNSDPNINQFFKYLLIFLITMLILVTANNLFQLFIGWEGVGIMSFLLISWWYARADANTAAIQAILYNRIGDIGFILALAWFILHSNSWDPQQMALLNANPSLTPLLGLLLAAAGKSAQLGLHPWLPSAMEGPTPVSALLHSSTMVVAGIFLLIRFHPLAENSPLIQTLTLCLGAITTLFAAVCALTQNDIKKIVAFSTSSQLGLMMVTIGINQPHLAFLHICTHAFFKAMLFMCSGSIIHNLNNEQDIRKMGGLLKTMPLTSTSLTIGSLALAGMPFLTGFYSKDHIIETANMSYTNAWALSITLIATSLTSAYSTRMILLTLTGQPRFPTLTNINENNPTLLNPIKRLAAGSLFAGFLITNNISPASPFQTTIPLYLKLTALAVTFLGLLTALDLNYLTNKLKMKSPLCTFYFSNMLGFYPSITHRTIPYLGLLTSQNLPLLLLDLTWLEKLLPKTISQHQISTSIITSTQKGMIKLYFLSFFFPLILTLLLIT

[2] = compound: CC1=C(SC2=C1C(=N[C@H](C3=NN=C(N32)C)CC(=O)N)C4=CC=C(C=C4)Cl)C
How it was run: as §1

[3] = compound: CC1=C2C(=CC=C1)N=C(N(C2=O)C3=CC=CC=C3C)CN4C=NC5=C(N=CN=C54)N
How it was run: as §1

[4] = compound: Cc1sc2c(c1C)C(c1ccc(Cl)cc1)=N[C@@H](CC(=O)OC(C)(C)C)c1nnc(C)n1-2
How it was run: as §1

[5] = compound: c1ccc([C@@H]2C[C@H]2NC2CCNCC2)cc1
How it was run: as §1

Measured: log2 fold change

MRPS11 (UniProt P82912)
inactive: [1] -0.027 | [2] 0.059 | [3] 0.014 | [4] -0.085 | [5] 0.054

MTREX (UniProt P42285)
inactive: [1] -0.008 | [2] -0.002 | [3] 0.007 | [4] -0.011 | [5] -0.005

MTMR6 (UniProt Q9Y217)
inactive: [1] 0.015 | [2] 0.01 | [3] 0.006 | [4] -0.065 | [5] 0.062

MSMO1 (UniProt Q15800)
inactive: [1] 0.018 | [2] 0.033 | [3] 0.046 | [4] -0.078 | [5] -0.018

MTHFR (UniProt F8W9T8)
inactive: [1] -0.046 | [2] 0.055

MTPN (UniProt P58546)
inactive: [1] 0.045 | [2] -0.046 | [3] -0.001 | [4] -0.005 | [5] 0.103

2 records picked at random from those above, as already listed:
MSMO1 (UniProt Q15800)
inactive: [1] 0.018 | [2] 0.033 | [3] 0.046 | [4] -0.078 | [5] -0.018

MTHFR (UniProt F8W9T8)
inactive: [1] -0.046 | [2] 0.055

Further records.

MTRES1 (UniProt Q9P0P8)
inactive: [1] 0.066 | [2] 0.083 | [3] 0.034 | [4] 0.058

MT1G (UniProt P13640)
inactive: [1] 0.094 | [2] -0.072 | [3] -0.005 | [4] 0.091 | [5] -0.144

MTHFR isoform 2 (UniProt P42898)
inactive: [1] -0.004 | [2] 0.01 | [3] 0.003 | [4] -0.028 | [5] 0.014

MT-ND5 (UniProt P03915)
inactive: [1] -0.122 | [2] -0.018 | [3] 0.062 | [4] 0.092 | [5] 0.01
